Test results published in publication doi:10.1101/517789.
Where two headings read alike, the source gives them in different places. Results are given in words; binding and its absence hold for the method and conditions named. Binding seen in cells or lysates may run through a third protein. Some entries that bind do so weakly or less than the wild type. For part of these data: Where a sequence is shown, tags or fusion partners need not be part of it.

Chains of the proteins cited; added tags and fusions are not shown.
UniProt P11531: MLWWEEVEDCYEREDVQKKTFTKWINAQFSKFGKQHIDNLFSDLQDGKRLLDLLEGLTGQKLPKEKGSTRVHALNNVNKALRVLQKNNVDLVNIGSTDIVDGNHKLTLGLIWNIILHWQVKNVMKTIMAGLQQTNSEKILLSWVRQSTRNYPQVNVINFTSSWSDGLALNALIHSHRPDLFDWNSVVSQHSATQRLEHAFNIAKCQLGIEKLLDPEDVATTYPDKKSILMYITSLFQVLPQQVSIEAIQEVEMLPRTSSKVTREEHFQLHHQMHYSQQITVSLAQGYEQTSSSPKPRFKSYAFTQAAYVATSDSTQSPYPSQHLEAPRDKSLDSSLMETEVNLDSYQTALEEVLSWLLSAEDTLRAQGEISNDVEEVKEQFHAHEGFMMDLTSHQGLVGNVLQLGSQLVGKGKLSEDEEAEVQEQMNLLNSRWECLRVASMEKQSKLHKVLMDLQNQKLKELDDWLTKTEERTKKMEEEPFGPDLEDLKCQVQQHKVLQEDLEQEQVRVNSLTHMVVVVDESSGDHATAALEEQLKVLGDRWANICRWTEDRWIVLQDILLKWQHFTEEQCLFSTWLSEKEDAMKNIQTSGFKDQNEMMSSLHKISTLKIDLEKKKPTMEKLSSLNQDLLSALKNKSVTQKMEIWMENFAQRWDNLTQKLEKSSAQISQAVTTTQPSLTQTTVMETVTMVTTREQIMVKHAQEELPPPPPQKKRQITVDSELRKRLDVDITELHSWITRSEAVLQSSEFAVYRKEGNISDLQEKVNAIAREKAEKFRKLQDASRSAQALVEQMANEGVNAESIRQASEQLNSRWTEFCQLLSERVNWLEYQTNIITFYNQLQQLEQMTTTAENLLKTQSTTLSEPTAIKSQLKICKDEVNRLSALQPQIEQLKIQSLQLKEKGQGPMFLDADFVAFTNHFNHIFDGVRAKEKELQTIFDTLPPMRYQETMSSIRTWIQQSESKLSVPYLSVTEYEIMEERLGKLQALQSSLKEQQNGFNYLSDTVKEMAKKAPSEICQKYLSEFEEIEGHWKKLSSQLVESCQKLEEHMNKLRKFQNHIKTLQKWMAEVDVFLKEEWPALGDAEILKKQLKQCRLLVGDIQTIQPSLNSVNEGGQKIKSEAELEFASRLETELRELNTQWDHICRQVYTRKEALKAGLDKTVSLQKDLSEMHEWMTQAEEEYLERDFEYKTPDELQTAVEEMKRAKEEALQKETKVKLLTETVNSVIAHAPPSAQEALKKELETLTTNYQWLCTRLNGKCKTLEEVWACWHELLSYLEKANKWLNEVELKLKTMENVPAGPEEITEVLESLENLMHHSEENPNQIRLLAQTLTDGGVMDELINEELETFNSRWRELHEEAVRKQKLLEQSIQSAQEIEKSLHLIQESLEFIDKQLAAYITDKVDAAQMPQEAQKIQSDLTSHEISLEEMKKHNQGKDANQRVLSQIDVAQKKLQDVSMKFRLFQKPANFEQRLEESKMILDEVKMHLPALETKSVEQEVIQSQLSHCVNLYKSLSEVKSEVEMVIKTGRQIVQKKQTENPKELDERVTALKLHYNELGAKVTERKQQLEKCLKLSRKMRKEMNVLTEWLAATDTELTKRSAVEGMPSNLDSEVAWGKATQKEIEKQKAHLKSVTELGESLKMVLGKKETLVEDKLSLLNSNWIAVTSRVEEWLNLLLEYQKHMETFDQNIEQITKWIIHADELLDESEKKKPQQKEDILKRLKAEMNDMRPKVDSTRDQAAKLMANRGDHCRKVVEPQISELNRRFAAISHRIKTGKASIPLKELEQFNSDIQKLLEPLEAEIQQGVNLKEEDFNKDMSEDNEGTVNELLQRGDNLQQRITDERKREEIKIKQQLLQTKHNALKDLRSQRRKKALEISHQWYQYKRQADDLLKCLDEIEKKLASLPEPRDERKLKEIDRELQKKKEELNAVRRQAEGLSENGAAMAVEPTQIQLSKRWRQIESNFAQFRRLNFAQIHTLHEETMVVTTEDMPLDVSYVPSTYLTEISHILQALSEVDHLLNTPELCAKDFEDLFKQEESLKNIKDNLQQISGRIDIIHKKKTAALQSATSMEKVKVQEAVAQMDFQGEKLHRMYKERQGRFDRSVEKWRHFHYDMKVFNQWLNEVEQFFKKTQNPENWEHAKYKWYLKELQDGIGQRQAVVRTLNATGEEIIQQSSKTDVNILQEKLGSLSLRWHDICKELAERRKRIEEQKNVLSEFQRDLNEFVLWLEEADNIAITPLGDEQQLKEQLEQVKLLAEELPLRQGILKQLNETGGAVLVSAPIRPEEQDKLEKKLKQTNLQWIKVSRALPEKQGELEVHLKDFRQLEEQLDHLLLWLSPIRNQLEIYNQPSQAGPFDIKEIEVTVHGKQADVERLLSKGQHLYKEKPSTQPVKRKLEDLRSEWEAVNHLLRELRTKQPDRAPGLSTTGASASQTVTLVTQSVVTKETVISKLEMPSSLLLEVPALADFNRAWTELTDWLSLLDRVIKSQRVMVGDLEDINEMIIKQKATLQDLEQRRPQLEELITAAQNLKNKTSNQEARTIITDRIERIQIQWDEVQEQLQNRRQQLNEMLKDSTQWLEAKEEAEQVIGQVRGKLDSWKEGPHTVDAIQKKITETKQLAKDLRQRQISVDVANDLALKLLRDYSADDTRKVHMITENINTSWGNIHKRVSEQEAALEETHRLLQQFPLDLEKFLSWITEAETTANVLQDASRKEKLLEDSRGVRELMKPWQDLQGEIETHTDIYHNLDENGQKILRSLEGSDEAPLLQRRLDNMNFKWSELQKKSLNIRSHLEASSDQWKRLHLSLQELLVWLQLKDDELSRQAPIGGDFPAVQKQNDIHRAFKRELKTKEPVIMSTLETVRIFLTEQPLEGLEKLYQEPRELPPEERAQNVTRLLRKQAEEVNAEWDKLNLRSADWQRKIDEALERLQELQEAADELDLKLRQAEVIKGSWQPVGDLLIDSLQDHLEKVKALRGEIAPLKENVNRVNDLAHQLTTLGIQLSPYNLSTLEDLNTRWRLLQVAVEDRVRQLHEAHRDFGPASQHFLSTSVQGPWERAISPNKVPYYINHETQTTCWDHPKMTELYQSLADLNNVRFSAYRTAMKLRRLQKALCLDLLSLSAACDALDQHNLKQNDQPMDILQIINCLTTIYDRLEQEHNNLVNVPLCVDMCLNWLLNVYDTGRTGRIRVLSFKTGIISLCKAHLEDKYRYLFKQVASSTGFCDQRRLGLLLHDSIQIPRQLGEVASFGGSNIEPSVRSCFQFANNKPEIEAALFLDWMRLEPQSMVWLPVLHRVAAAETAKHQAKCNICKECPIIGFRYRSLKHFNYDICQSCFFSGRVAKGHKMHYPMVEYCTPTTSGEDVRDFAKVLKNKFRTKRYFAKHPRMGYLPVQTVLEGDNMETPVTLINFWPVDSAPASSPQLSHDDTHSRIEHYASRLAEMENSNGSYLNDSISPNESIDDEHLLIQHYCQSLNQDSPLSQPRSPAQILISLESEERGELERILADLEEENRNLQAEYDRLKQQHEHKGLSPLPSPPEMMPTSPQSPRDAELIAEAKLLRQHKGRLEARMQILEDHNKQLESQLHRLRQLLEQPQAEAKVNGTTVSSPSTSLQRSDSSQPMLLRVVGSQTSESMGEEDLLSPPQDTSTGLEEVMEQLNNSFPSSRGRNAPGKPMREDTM

T1: α-1-syntrophin (mouse (endogenous in skeletal muscle)) (UniProt Q61234)
T1 sequence: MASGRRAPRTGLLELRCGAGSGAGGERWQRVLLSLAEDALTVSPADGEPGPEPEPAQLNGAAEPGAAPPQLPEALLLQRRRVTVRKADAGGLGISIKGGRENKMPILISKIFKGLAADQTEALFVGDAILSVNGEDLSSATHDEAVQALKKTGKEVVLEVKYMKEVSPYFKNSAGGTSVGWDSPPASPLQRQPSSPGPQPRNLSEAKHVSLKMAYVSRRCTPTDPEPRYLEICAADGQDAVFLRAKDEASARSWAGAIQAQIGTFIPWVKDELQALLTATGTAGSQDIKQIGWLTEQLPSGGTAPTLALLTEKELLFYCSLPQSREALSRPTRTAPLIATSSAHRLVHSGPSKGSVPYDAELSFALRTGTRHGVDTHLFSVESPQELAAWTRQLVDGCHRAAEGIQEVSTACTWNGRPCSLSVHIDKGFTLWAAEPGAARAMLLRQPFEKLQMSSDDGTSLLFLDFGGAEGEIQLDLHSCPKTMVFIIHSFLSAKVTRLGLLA

T2: plakoglobin (mouse (endogenous in skeletal muscle, heart, liver)) (UniProt Q02257)
T2 sequence: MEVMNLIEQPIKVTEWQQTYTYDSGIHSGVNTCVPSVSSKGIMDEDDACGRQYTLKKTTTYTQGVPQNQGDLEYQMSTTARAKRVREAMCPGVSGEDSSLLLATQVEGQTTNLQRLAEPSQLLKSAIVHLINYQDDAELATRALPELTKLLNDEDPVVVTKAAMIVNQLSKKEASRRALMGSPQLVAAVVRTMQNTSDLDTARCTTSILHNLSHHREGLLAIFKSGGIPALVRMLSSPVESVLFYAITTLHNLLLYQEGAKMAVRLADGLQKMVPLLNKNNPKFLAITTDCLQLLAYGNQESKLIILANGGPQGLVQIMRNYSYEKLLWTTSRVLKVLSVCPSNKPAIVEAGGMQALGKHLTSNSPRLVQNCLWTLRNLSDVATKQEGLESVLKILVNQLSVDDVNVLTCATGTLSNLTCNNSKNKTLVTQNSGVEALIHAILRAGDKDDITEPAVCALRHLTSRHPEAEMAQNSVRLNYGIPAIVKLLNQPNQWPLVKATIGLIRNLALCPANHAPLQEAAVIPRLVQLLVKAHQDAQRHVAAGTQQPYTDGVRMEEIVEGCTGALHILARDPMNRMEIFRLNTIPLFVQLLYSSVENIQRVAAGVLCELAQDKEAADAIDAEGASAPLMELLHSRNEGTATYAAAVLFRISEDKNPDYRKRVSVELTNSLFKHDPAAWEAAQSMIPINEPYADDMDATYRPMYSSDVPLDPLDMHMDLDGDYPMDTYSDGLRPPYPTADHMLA

T3: 6His-tagged plakoglobin (UniProt P14923)
T3 sequence: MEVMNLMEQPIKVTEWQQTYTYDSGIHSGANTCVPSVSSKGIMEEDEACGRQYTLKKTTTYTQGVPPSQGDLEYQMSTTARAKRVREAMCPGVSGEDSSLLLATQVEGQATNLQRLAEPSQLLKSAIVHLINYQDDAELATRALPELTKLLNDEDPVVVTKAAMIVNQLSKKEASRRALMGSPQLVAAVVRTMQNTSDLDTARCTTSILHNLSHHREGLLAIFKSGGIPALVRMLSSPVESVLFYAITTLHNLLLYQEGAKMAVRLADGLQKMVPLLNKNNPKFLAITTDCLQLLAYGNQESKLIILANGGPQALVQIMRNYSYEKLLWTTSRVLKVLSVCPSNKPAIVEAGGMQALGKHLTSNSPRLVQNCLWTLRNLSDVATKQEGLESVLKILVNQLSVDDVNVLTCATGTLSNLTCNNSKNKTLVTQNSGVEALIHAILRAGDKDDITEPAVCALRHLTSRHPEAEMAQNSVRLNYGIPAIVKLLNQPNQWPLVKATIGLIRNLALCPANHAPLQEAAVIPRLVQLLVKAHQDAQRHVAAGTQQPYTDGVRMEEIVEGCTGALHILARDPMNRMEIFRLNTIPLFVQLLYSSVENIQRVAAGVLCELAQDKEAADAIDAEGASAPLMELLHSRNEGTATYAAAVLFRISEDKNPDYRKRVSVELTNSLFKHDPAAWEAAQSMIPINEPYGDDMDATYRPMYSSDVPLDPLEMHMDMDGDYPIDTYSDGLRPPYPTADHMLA

T4: 6His-V5-plakoglobin (FL) (UniProt P14923)
T4 sequence: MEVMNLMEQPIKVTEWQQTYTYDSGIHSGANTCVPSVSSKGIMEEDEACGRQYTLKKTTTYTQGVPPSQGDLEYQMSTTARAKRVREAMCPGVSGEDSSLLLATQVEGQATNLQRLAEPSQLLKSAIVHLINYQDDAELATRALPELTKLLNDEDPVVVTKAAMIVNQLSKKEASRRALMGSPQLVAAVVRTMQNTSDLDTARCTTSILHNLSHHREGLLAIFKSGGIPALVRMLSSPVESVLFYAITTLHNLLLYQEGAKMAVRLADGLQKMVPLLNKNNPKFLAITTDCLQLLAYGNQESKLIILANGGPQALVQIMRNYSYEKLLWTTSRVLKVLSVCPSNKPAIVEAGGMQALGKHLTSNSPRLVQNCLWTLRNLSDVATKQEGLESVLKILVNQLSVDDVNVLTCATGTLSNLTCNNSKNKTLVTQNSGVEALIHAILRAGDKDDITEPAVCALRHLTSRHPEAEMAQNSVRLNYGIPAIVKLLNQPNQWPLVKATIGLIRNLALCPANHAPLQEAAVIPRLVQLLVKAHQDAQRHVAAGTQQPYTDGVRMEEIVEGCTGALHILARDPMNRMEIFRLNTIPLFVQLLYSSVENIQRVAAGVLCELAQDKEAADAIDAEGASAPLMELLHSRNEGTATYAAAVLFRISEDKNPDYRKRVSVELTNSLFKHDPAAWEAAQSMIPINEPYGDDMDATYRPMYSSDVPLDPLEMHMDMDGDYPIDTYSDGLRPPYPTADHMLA


What was measured:
[1] = molecular target: T1, α-1-syntrophin (mouse (endogenous in skeletal muscle)); experiment: co-IP
[2] = molecular target: T2, plakoglobin (mouse (endogenous in skeletal muscle, heart, liver)); experiment: co-IP
[3] = molecular target: T2, plakoglobin (mouse (endogenous in skeletal muscle, heart, liver)); experiment: co-IP; remark: listed apart in the source
6His-tagged plakoglobin = molecular target: T3, 6His-tagged plakoglobin; experiment: pull-down
6His-V5-plakoglobin (FL) = molecular target: T4, 6His-V5-plakoglobin (FL); experiment: pull-down
[4] = molecular target: T1, α-1-syntrophin (mouse (endogenous in skeletal muscle)); experiment: co-IP; remark: listed apart in the source

binding [3]	binding (6His-tagged plakoglobin)	Molecule	other results
binds		β-dystroglycan (protein, UniProt Q62165 652-893, glycosylated form in the plakoglobin-containing fractions (sites not given)) SIVVEWTNNTLPLEPCPKEQIIGLSRRIADENGKPRPAFSNALEPDFKALSIAVTGSGSCRHLQFIPVAPPSPGSSAAPATEVPDRDPEKSSEDDVYLHTVIPAVVVAAILLIAGIIAMICYRKKRKGKLTLEDQATFIKKGVPIIFADELDDSKPPPSSSMPLILQEEKAPLPPPEYPNQSMPETTPLNQDTVGEYTPLRDEDPNAPPYQPPPPFTAPMEGKGSRPKNMTPYRSPPPYVPP	binding (6His-V5-plakoglobin (FL)): binds; binding [4]: binds
	binds	vinculin (protein, UniProt Q64727 1-1066) MPVFHTRTIESILEPVAQQISHLVIMHEEGEVDGKAIPDLTAPVAAVQAAVSNLVRVGKETVQTTEDQILKRDMPPAFIKVENACTKLVQAAQMLQSDPYSVPARDYLIDGSRGILSGTSDLLLTFDEAEVRKIIRVCKGILEYLTVAEVVETMEDLVTYTKNLGPGMTKMAKMIDERQQELTHQEHRVMLVNSMNTVKELLPVLISAMKIFVTTKNSKNQGIEEALKNRNFTVEKMSAEINEIIRVLQLTSWDEDAWASKDTEAMKRALASIDSKLNQAKGWLRDPNASPGDAGEQAIRQILDEAGKVGELCAGKERREILGTCKMLGQMTDQVADLRARGQGASPVAMQKAQQVSQGLDVLTAKVENAARKLEAMTNSKQSIAKKIDAAQNWLADPNGGPEGEEQIRGALAEARKIAELCDDPKERDDILRSLGEIAALTSKLGDLRRQGKGDSPEARALAKQVATALQNLQTKTNRAVANSRPAKAAVHLEGKIEQAQRWIDNPTVDDRGVGQAAIRGLVAEGHRLANVMMGPYRQDLLAKCDRVDQLTAQLADLAARGEGESPQARALASQLQDSLKDLKAQMQEAMTQEVSDVFSDTTTPIKLLAVAATAPPDAPNREEVFDERAANFENHSGRLGATAEKAAAVGTANKSTVEGIQASVKTARELTPQVISAARILLRNPGNQAAYEHFETMKNQWIDNVEKMTGLVDEAIDTKSLLDASEEAIKKDLDKCKVAMANIQPQMLVAGATSIARRANRILLVAKREVENSEDPKFREAVKAASDELSKTISPMVMDAKAVAGNISDPGLQKSFLDSGYRILGAVAKVREAFQPQEPDFPPPPPDLEQLRLTDELAPPKPPLPEGEVPPPRPPPPEEKDEEFPEQKAGEVINQPMMMAARQLHDEARKWSSKGNDIIAAAKRMALLMAEMSRLVRGGSGTKRALIQCAKDIAKASDEVTRLAKEVAKQCTDKRIRTNLLQVCERIPTISTQLKILSTVKATMLGRTNISDEESEQATEMLVHNAQNLMQSVKETVREAEAASIKIRTDAGFTLRWVRKTPWYQ	

Further lines, the molecule ahead of its results:

Molecule	binding [3]	binding (6His-tagged plakoglobin)	other results
dystrophin (from UniProt P11531 1-3678)			binding [1]: binds
Tyrosine Kinase Receptor, MuSK (receptor, UniProt Q61006 22-868) EKLPKAPVITTPLETVDALVEEVATFMCAVESYPQPEISWTRNKILIKLFDTRYSIRENGQLLTILSVEDSDDGIYCCIANNGVGGAVESCGALQVKMKPKITRPPINVKIIEGLKAVLPCTTMGNPKPSVSWIKGDNALRENSRIAVLESGSLRIHNVQKEDAGQYRCVAKNSLGTAYSKLVKLEVEVFARILRAPESHNVTFGSFVTLRCTAIGIPVPTISWIENGNAVSSGSIQESVKDRVIDSRLQLFITKPGLYTCIATNKHGEKFSTAKAAATVSIAEWSKSQKDSQGYCAQYRGEVCDAVLAKDALVFFNTSYRDPEDAQELLIHTAWNELKAVSPLCRPAAEALLCNHLFQECSPGVVPTPMPICREYCLAVKELFCAKEWQAMEGKAHRGLYRSGMHLLPVPECSKLPSMHRDPTACTRLPYLDYKKENITTFPSITSSRPSADIPNLPASTSSFAVSPAYSMTVIISIVSSFALFALLTIATLYCCRRRKEWKNKKRESTAVTLTTLPSELLLDRLHPNPMYQRMPLLLNPKLLSLEYPRNNIEYVRDIGEGAFGRVFQARAPGLLPYEPFTMVAVKMLKEEASADMQADFQREAALMAEFDNPNIVKLLGVCAVGKPMCLLFEYMAYGDLNEFLRSMSPHTVCSLSHSDLSTRARVSSPGPPPLSCAEQLCIARQVAAGMAYLSERKFVHRDLATRNCLVGETMVVKIADFGLSRNIYSADYYKADGNDAIPIRWMPPESIFYNRYTTESDVWAYGVVLWEIFSYGLQPYYGMAHEEVIYYVRDGNILACPENCPLELYNLMRLCWSKLPADRPSFCSIHRILQRMCERAEGTVGV	no binding		binding [2]: no binding
caveolin-1 (protein, UniProt P49817 1-178) MSGGKYVDSEGHLYTVPIREQGNIYKPNNKAMADEVTEKQVYDAHTKEIDLVNRDPKHLNDDVVKIDFEDVIAEPEGTHSFDGIWKASFTTFTVTKYWFYRLLSTIFGIPMALIWGIYFAILSFLHIWAVVPCIKSFLIEIQCISRVYSIYVHTFCDPLFEAIGKIFSNIRISTQKEI	binds	binds	
